In the RNAGym collection of RNA variant scans (doi:10.1126/science.aae0568) one finds yeast fitness data, which are given here for 38 variants.

The labels stand for the following.
B1: tRNA (parent)
chain: GUUCCGUUGGCGUAAUGGUAACGCGUCUCCCUCCUAAGGAGAAGACUGCGGGUUCGAGUCCCGUACGGAACG

Variants at the background level are over-represented here.

The data set covers variants of B1. As to the kind of experiment: yeast fitness relative to wild type (ratio to wild type); higher = fitter; tRNA-Arg(CCU), competitive growth, 37 C, YPD. The method, boiled down: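 Variants of the tRNA-Arg(CCU) gene, chemically synthesised with a 3% per-site mutation rate at 69 sites, were placed at the native genomic locus in Saccharomyces cerevisiae. The pooled strains were competed in YPD at 37°C for 24 hours in six parallel replicates. Gene amplicons from the start population and from each end population were read by 100-nucleotide paired-end sequencing. Darwinian fitness relative to wild type came from changes in genotype frequencies; genotypes needed ≥ 100 starting reads, and estimates < 0.5 were set to 0.5.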
In the case of GUUCCGUUGGCGUAAUGGUAACGCGUAUCCCUCCUGAGGAGAAGACUGCGGGUUCGAGUGCCGUACGGACCG, the yeast fitness was not above 0.5. GUUCCGUUGGCGUAAUGGUAACGCGUCUCCCGCCUUAGGAGAAGACUGCGGGUUCGAGCCCCGUACGGAACG: the yeast fitness was not above 0.5. To GUUCCGUUGGCGUACUGGUAACCCGUCUCCCUCCUAAGGAGAAGACUGCGGGUUCGAGUUCCGUACGGAACG belongs not above 0.5; to GCUCCGUUGGCGUAAGGGUAACGCAUCUCCCUCCUAAGGCGAAGAUUGCGGGUUCGAGUCCCGUACGGAACG, not above 0.5; to GUUCCAUUCGCGUAAUGGUUACGCGUCUCCCUCCUAAGGAGAAGACUGCGAGUUCGAGUCCCGUACGGAACG, not above 0.5. Take GUUCCGUUGGCGUAAUGGUAACGCGUCUCCCUCCUAAGCAGGAGACUGCGGGUUCGAGACCCGUACGGAACG: the yeast fitness is not above 0.5. As to GUUCCGUUGGCGUAAUGGUAACGCGUCUCCCUCCUAAGGAGAAGACUGCGGUUUCGAGUCCCGUGCGGAACG, the yeast fitness was 0.793. The result for GUUCCGUUGGCGUAAUGGUAAAGCGUCUCCCUCCUAAGGAGAAGACUGCGGGUUCGAGUGCCGUACGGAACG reads 0.57; that for GUUCCGUUGGCGUAAUGGUAGCGCGUCUCCCUCCUCUGGAGAAGACUGCGGGUUCGAGUCCGGUACGGUACG, not above 0.5. For GUUCCGUUGGCGUAAUGAUAACGCGUCACCCUCCUAAGGAGAAGACAGCGGGUUCGGGUCCCGUACGGAACG, the yeast fitness was not above 0.5. The result for GUUGCGUUGGCGUAAUGGUAACGCGUCUCCUUCCUAAGGAGAAGACUGCGGGUUAGAGUCCCGUACGGAACG reads not above 0.5; that for GUUCCGUUGGCGUAAAGGUAACGCGUCUCCCUCCUAAGGAGAAGACUGCGGGUUCGACUCCCGAACGGUACG, not above 0.5; that for GUUCCGUUGGCAUAAUGGUAACGCGUGUUCCUCCUAUGGAGAAGACUGCGGGUUCGAGUCCCGUACGGAACG, not above 0.5.

As for GUUCCGUGGGCGUAAUGGUAACGCGUCUCCGUCCUAAGGAGCAGACUGCGGGUUCGAGUCCCGUACGGAACG, the yeast fitness was not above 0.5.

As to GUUCCGUUGGCGUAAUGGUAACGCGUCUCCCUCCUUAGGUGAAGACUGGGGGUUCGAGUCACGUACGGAACG, the yeast fitness is not above 0.5. With GUUCAGUUGGCGUAAUGGUUACGCGUAUCCCUCCUAAGGAGGGGAUUGCGGGUUCGCGUCCCGUACCGAACG, the yeast fitness was not above 0.5.

GUUUCGUUGGCGUAAUGGUAUCGCGUCUCCCUCCUAAGGAGAAGACUGCGGGUACGAGUCCCGUACGGAGCG: the yeast fitness was not above 0.5. To GAUCCGCUGGCGUAACGGUAACGCGUCUCACUCCUAAGGAGAAGACUGCGGGUUCGAGUCCCGUACGGAACG belongs not above 0.5.

Regarding GUUCCGUUGGCGUAAUGGUAACGCGUCUACCUACUAAGGAGAAGACUGCGGGUUCGAGUCCCGUACGGAACG, the yeast fitness is not above 0.5. To GUUCCGUUGGCGUCAUGGUGAUGCGUCUCCCUCCUAAGGAGAAGACUGGGGGUUCCAGUCCCGUACAGAACG belongs not above 0.5; to GUUCCGUUGGCGUAAUGGUAACGCAUCUCCCUCCUCAGGAGAAUACUGCGGGUUCGAGUCCCGUACGGAACG, not above 0.5; to GUUCCGUUCGCGUGAUGGUAACGCGUCUCCCUCCUAAGGAGAAGACUGCGGGUUCGAGUCCCGUUAGGAACG, not above 0.5.

Consider GUUCCGUUGGCGUAAUGGUAACGCGUCUCCCUCCUAGGGACAAGACUGCGGGUUGGAGUCCCGUACGGAACG, for which the yeast fitness was not above 0.5. Turning to GUUCCGUUGGGGUACUGGUAACGCGUCUCCCUCCUAUGGAGAAGACUGCGGGUUCGAGUCCCGUACGGAACG, the yeast fitness was not above 0.5.

For the variant GUUCCGGUGCCGUAAUGGUAACGCGUCUCCCUGGUAAGGAGAAGACUGCGGGUUCGAGUCCGGUACGGAACG, the yeast fitness was not above 0.5. The result for GUUCCGUUGGCGUAAUGAUAACGCCUCUCCCUCCUAAGGAGAAGACUGCGAGUUCGAGUCCCGUCCGGAACG reads not above 0.5. As to GUUCCAUUGGCGUAAUGGUAACGUCUCUCCCUCCUAAGGAGAAGACUGCGGGUUCGAGUCCCGUACGGAACG, the yeast fitness is not above 0.5. To GUUCCGUUGGCGUAAUGGUACCGCGUCUCCCUCCUAAGGAGAAGGCCGCGGGUUCGAGUCCCGUACGCAACG belongs not above 0.5; to GUCCCGUUGGCGUAAUGGUAACGCGUCUCCCUCCUAAGGAGAAGAGUGCGGGUUCGAGUCCCGUACGGCACG, 0.625; to GUUCCGUUGGCGCAAUGGUAACGCGACUCCCUCCUAAGGAGAAGACUGCGGGUUCGAGUCCCGUACGGAACG, 0.982. The result for GUUCCGUUGGCGUAAUGGUACCCCGUCUCCCUCCUAAGGAGAAGACUGCGGGUUCGAGUACCGUACGGAACG reads not above 0.5. To GUUCCGUUGGAGUAAUAGUAACGCGUCUCCCUUCUAAGGAGAAGACUGCGGGUUCGAGUCCCGUACGGACCG belongs not above 0.5; to GUUCCGUUGGCGCAAUGGUAACGUGUCUCCAUCCUAAGGAGAAGACUGCGGGUUCGCGUCCCGUACGGAACG, not above 0.5. Regarding GCUCCGUUGCCGUAAUGGUAAUGCGUCCCCCUCCUAAGGAGAAGACUGCGGGUUCGAGUCCCGUACGGAACG, the yeast fitness is not above 0.5.

Regarding GUUCCGUUGGCGUAAUGGUAACGCGUCUCCCUACUAAGGAGAAGACUGCGGGUUCGAGUCUGGUACGGAACG, the yeast fitness was not above 0.5. The result for GUUCCGUUCGCGUAAUGGUGACGCGUCUCCCUCCUAAGGAGUACACUGCCGGUUCGAGUCCCGUACGGAACG reads not above 0.5; that for GUACCGUGGGCGUAAUGGUAACGCGUCUCCCUCCUAAGCAGAAGACUGCGGGUUCGAGUGCCGUACGGAUCG, not above 0.5.

Consider GAUCCGUUGGCGUAAUGGUAACGCGUCUCCCUCCUAAGGAGAAGACGGAGGGUUCGAGUUCCGUCCGGAACG, for which the yeast fitness is not above 0.5.
